## Percent effect of library compounds

The chains behind the UniProt entries cited, without tags or fusion partners.
UniProt P9WNZ1, whole entry: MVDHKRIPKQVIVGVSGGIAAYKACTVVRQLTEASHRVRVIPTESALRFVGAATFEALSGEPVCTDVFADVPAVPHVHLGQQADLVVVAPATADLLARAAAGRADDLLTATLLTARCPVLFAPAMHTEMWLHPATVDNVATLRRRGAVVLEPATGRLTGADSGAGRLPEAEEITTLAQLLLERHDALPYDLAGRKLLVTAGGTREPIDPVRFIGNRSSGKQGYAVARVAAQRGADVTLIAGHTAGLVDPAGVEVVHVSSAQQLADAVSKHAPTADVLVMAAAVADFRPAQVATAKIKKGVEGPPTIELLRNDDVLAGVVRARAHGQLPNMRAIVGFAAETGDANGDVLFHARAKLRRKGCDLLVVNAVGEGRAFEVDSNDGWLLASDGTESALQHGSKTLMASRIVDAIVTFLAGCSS

From ChEMBL document CHEMBL3988442, “University of Dundee, Small-Polar-MMV Screening Library” (2021).

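Enzyme assay of CoaBC with a phosphate dye (Biomol Green) read at 650 nm. Target: Coenzyme A biosynthesis protein CoaBC, Mycobacterium tuberculosis (UniProt P9WNZ1). Concentration: 30 µM. Direction is inferred from only a few compounds that gave an IC50; most scored high, so higher reads as stronger inhibition. Most strong results did not repeat in a second test. Of about 67,000 compounds tested this way, about 40 (0.06%) reached 50% or more in at least one test.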

Each number is a percent effect as filed. How 0% and 100% were set is not recorded. Most values in the screen are low, and negative values occur. The compounds are a random part of those screened.

compound: O=C(c1cccc(Cl)c1)N1CCCC2(CCCNC2)C1 (stereo unspecified)
percent effect: -3.623

compound: CCn1cc(S(=O)(=O)NCC(c2ccccc2)N2CCOCC2)c(C)n1 (stereo unspecified)
percent effect: 2.632

compound: O=c1c2ccccc2nc2n1C(CSc1cccc(C(F)(F)F)c1)CN2 (stereo unspecified)
percent effect: 0.9206

compound: COc1cccc2c1ccn2CC(=O)N1CCCC(C(=O)O)C1 (stereo unspecified)
percent effect: 6.076

compound: CCN1CCCN(C(=O)c2cnc(OC(C)C)c(Cl)c2)CC1
percent effect: -26.88

compound: O=C(c1cc(-n2cccn2)ccn1)N(CC(F)(F)F)C1CCCC1
percent effect: 1.339

compound: COc1ccc(C(=O)NCc2cc(N3CCOCC3)ncn2)o1
percent effect: 5.288

compound: O=C(NC1CC1)C1CCN(c2snc3ccccc23)CC1
percent effect: 5.216

compound: CCOCC(=O)Nc1ccc(-n2ccc(C(N)=O)n2)cc1
percent effect: 5.244

compound: CN(C)C(=O)N1C[C@@H]2CC[C@H](C1)N(C(=O)c1c(Cl)cccc1Cl)C2
percent effect: 3.822

compound: COCCC1(C(=O)O)CCCN(C(=O)c2cc(Cl)ccc2F)C1 (stereo unspecified)
percent effect: 0.8872

compound: CN(CCC(O)c1ccccc1)c1cc(C2CC2)ncn1 (stereo unspecified)
percent effect: -1.089

compound: Cc1nc(C)n(CC2CCCCN2CC(=O)NCc2ccccn2)n1 (stereo unspecified)
percent effect: 4.177

compound: COc1nn(C)cc1C(=O)N1CCC(c2ccccc2)C1 (stereo unspecified)
percent effect: 2.503

compound: CCc1ncc2c(n1)CN(C(C)C(=O)N1CCOCC1)CC2 (stereo unspecified)
percent effect: -3.178

compound: CCCc1nnsc1C(=O)NCC(O)c1cccs1 (stereo unspecified)
percent effect: 6.173

compound: O=C(O)c1csc(S(=O)(=O)N2CCCc3cccc(OC(F)F)c32)c1
percent effect: -2.444

compound: CN(CCOCC1CC1)C(=O)Cn1cccc(C(F)(F)F)c1=O
percent effect: 7.265

compound: CCc1cc(N[C@@H](CO)C(N)=O)n2nc(C)c(C)c2n1
percent effect: 1.241

compound: O=C1CCCCCN1CCc1nc(-c2cccnn2)no1
percent effect: 5.785

compound: CCn1cc(CN2CCN(CC(O)c3cc(C)ccc3C)CC2)c(C)n1 (stereo unspecified)
percent effect: 3.09

compound: Cc1cc(C(=O)N2CCC3(CCCN(CC4CC4)C3=O)C2)c(C)n1C (stereo unspecified)
percent effect: 9.677

compound: N#Cc1ccc(S(=O)(=O)NC(=O)c2csc(-c3ccco3)n2)cc1
percent effect: -7.393

compound: CN(Cc1ccncc1)C1CC2(CCN(c3ncccn3)CC2)C1
percent effect: 8.35

compound: O=C(NCC1CC1)C1CN(Cc2ccncc2)Cc2ccnn2C1 (stereo unspecified)
percent effect: 1.356

compound: O=C(c1ccccn1)N1CCc2c(nc(N3CCCC3)[nH]c2=O)C1
percent effect: 3.056

compound: O=C(CN1CCC2(CC1)NC(=O)c1cc(Br)ccc1N2)NC1CC1
percent effect: 3.417

compound: O=C(Cc1ccccn1)N1CCC2(CC1)CN(c1ccccn1)CCO2
percent effect: 3.893

compound: CCN(CC)[C@H]1C[C@@H](Cc2cc(CO)on2)C1(C)C
percent effect: -13.56

compound: O=C1CCN(CCS(=O)(=O)c2ccc(Cl)cc2)CCN1
percent effect: -6.889

compound: CCCN(C(=O)c1ocnc1C)C1CCCN(Cc2ccccc2)C1 (stereo unspecified)
percent effect: -0.2445